Results: PubChem BioAssay AID624291 (National Center for Advancing Translational Sciences (NCATS), 2012)
About 220 (0.063%) of roughly 350,000 compounds were called active. The inconclusive results got no clear call from the source; some entries with a clear call stand among them for comparison. Calls follow the shape of the dose curve; as a rule, active = well fitted activation curve with a large enough effect; inconclusive = small, poorly fitted or top-dose-only effect; inactive = no such curve, though single readings can be large or run the other way. Potencies beside an inconclusive call are fits to weak or partial responses and may not hold up.

assay: qHTS for Activators of Integrin-Mediated Alleviation for Muscular Dystrophy; settings: alpha7betagal myoblasts, beta-gal FDG fluorescence, 48 h; activation: at 38.3 µM (top of the series); also: nearly all actives have a fitted effect of over 60% in size;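 as to activation: 100% = response of the positive control SU9516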
Method in brief: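 Alpha7betagal+/- myoblasts (passage 13) were plated 16-24 hr, then exposed to compounds (1:260 dilution of DMSO stock) for 48 hours at 37C. After MPER lysis, β-galactosidase reporter activity was read as FDG fluorescence (ex 480/em 540) after 30 minutes.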
Potency is read from the fitted curve at half-maximal effect.

SMILES	Potency	activation
Nc1cc(Cl)ccc1Nc1ccncc1	inconclusive: 5.01 µM [activator, single point]	–
Oc1ccc(-c2cnc(-c3ccc(O)cc3)nc2)cc1	inactive	–
CCOc1ccc(N2C(=O)CC(SC(=NC)Nc3cccc(F)c3)C2=O)cc1 (stereo unspecified)	inconclusive: 17.8 µM [activator, single point]	–
Cc1cccc(OCCC(=O)NNC(=O)c2ccoc2C)c1	inconclusive: 15.8 µM [activator, single point]	–
O=S(=O)(NCCc1ccccc1)c1ccccc1	inconclusive: 12.6 µM [activator, single point]	–
Cc1ccc2c(Cl)cc(Cl)c(OCC(=O)NC(=O)NCc3ccco3)c2n1	inactive	–
Cn1c(C(=O)N2CCc3ccccc3C2)cc2oc3ccccc3c21	inactive	–
O=C(N/N=C/c1ccc(OC(=O)c2ccc(Br)cc2)cc1)c1ccncc1	inactive	–
COC(=O)c1sccc1-n1cccc1C(=O)C(=O)Nc1ccc(F)cc1	inconclusive: 3.55 µM [activator, single point]	–
COc1ccc(-n2c(CCc3ccccc3)nnc2SCC(=O)c2ccc(Cl)cc2)cc1	inactive	–
COc1ccccc1NC(=O)c1ccc(NC(=O)COC(=O)C2CC2C)cc1 (stereo unspecified)	inconclusive: 7.94 µM [activator, partial curve, poor fit]	–
O=C(O)CCC(=O)NNC(=O)c1cccc(Cl)c1	inconclusive: 3.16 µM [activator, single point]	–
CCOc1ccc(NC(=O)Cc2ccc(S(=O)(=O)N3CCCCC3)cc2)cc1OCC	inconclusive: 3.16 µM [activator, single point]	–
Cc1ccc(S(=O)(=O)Oc2cccc(N3C(=O)C4CC=CCC4C3=O)c2)cc1 (stereo unspecified)	inconclusive: 0.447 µM [activator, partial curve, poor fit]	–
COc1ccc2c(c1OC)C(=O)N1C2SC[C@H]1C(=O)NC1CCCC1 (stereo partly specified)	inconclusive: 0.891 µM [activator, partial curve, poor fit]	–
COc1cc(NC(=O)c2cccc(F)c2)ccc1NC(=O)c1cc2ccccc2o1	inconclusive: 4.47 µM [activator, full curve, poor fit]	–
Cc1cccc(NC(=O)NC2CC3CCC(C2)N3Cc2ccco2)c1 (stereo unspecified)	inconclusive: 4.47 µM [activator, single point]	–
COc1ccc(C(C)NC(=O)c2ccccc2Br)cc1OC (stereo unspecified)	inconclusive: 4.47 µM [activator, full curve, poor fit]	–
CCOC(=O)c1ccc(S(=O)(=O)N2CCN(CCc3ccncc3)CC2)cc1	inconclusive: 5.01 µM [activator, single point]	–
COc1ccc(-c2nc3n(c(=O)c2C#N)CCS3)c(OC)c1	inconclusive: 5.01 µM [activator, single point]	–
CCN(CC(=O)Nc1ccc(NC(C)=O)cc1)C(=O)c1cc(-c2ccccc2Cl)nc2ccccc12	–	inconclusive: 29.9% [activator]
COc1ccc(CNc2nc3nc(C)c(Cl)c(=O)n3[nH]2)cc1	inconclusive: 5.01 µM [activator, single point]	–
CC1(C2CC2)NC(=O)N(CC(=O)NCC(=O)Nc2ccc(F)c(F)c2F)C1=O (stereo unspecified)	inactive	–

SMILES	Potency	activation
C/C(=N/NC(=O)CSc1nc2ccccc2n1C)c1ccco1	inconclusive: 28.2 µM [activator, partial curve, poor fit]	–
Cc1ccc2nc(C)c(C(=O)N/N=C/c3cccs3)n2c1	inactive	–
NC(=O)c1ccc(NC(=O)COC(=O)CCc2ccc(S(=O)(=O)N3CCCCC3)cc2)cc1	inconclusive: 28.2 µM [activator, partial curve, poor fit]	–
C[C@H](CO)N1C[C@H](C)[C@@H](CN(C)S(=O)(=O)c2ccc(Oc3ccccc3)cc2)OCc2cn(nn2)CCCC1=O	inactive	–
Cc1[nH]n(-c2ccccc2)c(=O)c1C(=O)Nc1ccccc1	inactive	–
COc1ccc(N2C(=O)c3ccccc3NC23CCCCC3)cc1	inactive	–
CC(C)Cc1cc(C(=O)Nc2ccc(Br)cc2)no1	inconclusive: 3.55 µM [activator, single point]	–
COc1ccc(CN2C(=O)C(CC(=O)NCCc3ccccn3)CC(C(=O)N(C(C)C)C(C)C)=C2C)cc1 (stereo unspecified)	inactive	–
O=C1OC(Sc2ccccc2)(c2ccccc2)c2ccccc21 (stereo unspecified)	inactive	–
CCOC(=O)N(O)c1ccc(C=Cc2ccccc2)cc1	inactive	–
COc1ccccc1/C=N/NC(=O)CSc1cc(C)nc2ccccc12	inactive	–
COc1cc(C2SCC(=O)N2c2nnc(C34CC5CC(CC(C5)C3)C4)s2)cc(OC)c1OC (stereo unspecified)	inconclusive: 0.562 µM [activator, full curve, poor fit]	–
CC(C)C(NS(=O)(=O)/C=C/c1ccccc1)C(=O)NCc1ccc(F)cc1 (stereo unspecified)	inconclusive: 2.24 µM [activator, single point]	–
CN1C(=O)N(CC(=O)Nc2sccc2C(N)=O)C(=O)C12CCCCC2	inconclusive: 28.2 µM [activator, single point]	–
CCOc1ccc(NC(=O)NN2C(C)CCCC2C)cc1 (stereo unspecified)	inconclusive: 3.16 µM [activator, partial curve]	–
Cc1nn(-c2ccccc2)c(N)c1N=Nc1ccc2ccccc2c1	inconclusive: 3.55 µM [activator, single point]	–
COc1cc2c(cc1OC)C(c1cccc(Br)c1)NC(=O)C2 (stereo unspecified)	inconclusive: 5.01 µM [activator, single point]	–
COc1cc(Cl)c(NS(=O)(=O)c2ccc(-c3ccc(=O)[nH]n3)o2)c(OC)c1	inconclusive: 10 µM [activator, partial curve, poor fit]	–
O=C1C(C=Nc2ccc(F)cc2)=C(O)c2ccccc21	inactive	–
CN1CCC(NC(=S)Nc2cccc([N+](=O)[O-])c2)CC1	inactive	–
CC1CCN(c2nnc(-c3ccccc3)c3ccccc23)CC1	inactive	–
Cc1ccc(-n2c(CNc3ccc(C)c(Cl)c3)n[nH]c2=S)cc1	inconclusive: 11.2 µM [activator, single point]	–
O=C(NC(=S)NC1CCCC1)c1ccccc1	inconclusive: 5.01 µM [activator, single point]	–

Among those listed so far, three contain a thiophene ring, fused or not.
SMILES	Potency	activation
COC(=O)c1sccc1-n1cccc1C(=O)C(=O)Nc1ccc(F)cc1	inconclusive: 3.55 µM [activator, single point]	–
Cc1ccc2nc(C)c(C(=O)N/N=C/c3cccs3)n2c1	inactive	–
CN1C(=O)N(CC(=O)Nc2sccc2C(N)=O)C(=O)C12CCCCC2	inconclusive: 28.2 µM [activator, single point]	–
